# Assay: general procedure: Fmoc solid-phase peptide synthesis; Rink amide resin (loading 0.7 mmol/g); TentaGel S RAM; HOBt/DIC; HATU/DIPEA for Fmoc-NH-(PEG)2-COOH
# Conditions: for final HPLC purity: RP-HPLC (two different HPLC systems)
# [1] = whole synthesis, scale of the general procedure 15 μmol
Substance,final HPLC purity (conjugation step) [%],final HPLC purity [1] [%],further results
C-Peg-Y*-K(c[RGDfK])-Y*-Peg-G*-βA-NH2,>90,,
K(N3)-FHRRIKA-NH2,,>95,
C-Peg-Y*-K-Y*-Peg-G*(K(N3)-FHRRIKA-NH2)-βA-NH2,>95,,
C-Peg-Y*-K(c[RGDfK])-Y*-Peg-G*(K(N3)-FHRRIKA-NH2)-βA-NH2,,,conjugation yield (conjugation step): 75%
C-Peg-Y*-K-Y*-Peg-G*-βA-NH2,,>95,

# Reference: patent US10787485B2 (Universität Leipzig, priority 2015, dated 2020)
